Results are given in words; binding and its absence hold for the method and conditions named. Binding seen in cells or lysates may run through a third protein. Here binding means that the protein was enriched with, or labelled near, the bait; the list need not be complete. Where a sequence is shown, tags or fusion partners need not be part of it.
Target: T1, 2×HA-3×Flag-Eya1 (constitutively expressed in HEK293 cells) (UniProt P97767)
T1 sequence: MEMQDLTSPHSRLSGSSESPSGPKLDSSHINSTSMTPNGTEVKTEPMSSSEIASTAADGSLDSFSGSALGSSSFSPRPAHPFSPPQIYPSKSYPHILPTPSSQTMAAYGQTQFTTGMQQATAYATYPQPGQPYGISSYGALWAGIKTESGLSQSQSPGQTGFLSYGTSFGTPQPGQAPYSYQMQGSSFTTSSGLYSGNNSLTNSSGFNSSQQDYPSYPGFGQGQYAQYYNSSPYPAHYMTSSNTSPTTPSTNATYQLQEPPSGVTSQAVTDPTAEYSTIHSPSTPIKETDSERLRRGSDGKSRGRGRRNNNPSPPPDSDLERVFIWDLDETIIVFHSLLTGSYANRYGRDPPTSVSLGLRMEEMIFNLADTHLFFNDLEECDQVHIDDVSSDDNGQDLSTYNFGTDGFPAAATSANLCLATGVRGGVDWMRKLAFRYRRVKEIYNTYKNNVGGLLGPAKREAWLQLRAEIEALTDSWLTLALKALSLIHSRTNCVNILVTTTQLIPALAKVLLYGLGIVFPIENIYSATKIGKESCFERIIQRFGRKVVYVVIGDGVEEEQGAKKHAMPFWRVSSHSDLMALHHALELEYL
Test: affinity purification with mass spectrometry

Row | binding | Substance
1 | binds | BAF60b (HEK293 cells) (from UniProt Q92925 1-531)
2 | binds | BAF170 (HEK293 cells) (from UniProt Q8TAQ2 1-1214)
3 | binds | BAF155 (HEK293 cells) (from UniProt Q92922 1-1105)
